Experimental findings from publication PMC12631878, “Single‐Cell Transcriptome Analysis Reveals That Hmga2 Regulates Neuroinflammation and Retinal Function by Modulating Müller Cell Autophagy Through PI3K/AKT Signaling Following MCAO‐Induced Retinal Ischemia” (Advanced Science, 2025) are described below.

Results are given in words; binding and its absence hold for the method and conditions named. In cells and extracts the contact can be indirect. A result given as binding can be weak or reduced; the word gives no strength.

The target of the assay is phosphoinositide 3-kinase (PI3K) (mouse (endogenous in primary Müller cells)). Nature of the assay: co-IP; Müller cells lysed in RIPA buffer, pre-cleared with agarose beads, incubated overnight at 4 °C with specific primary antibody (anti-Hmga2 or anti-PI3K) or 1 µg IgG; immunoprecipitates analysed by immunoblotting. On the technique in general: Immunoblotting shows a protein as a band on a membrane.

B1: Hmga2 (protein used in biolayer interferometry) (natural protein, UniProt P52927 1-108, looked up)
chain: MSARGEGAGQPSTSAQGQPAAPVPQKRGRGRPRKQQQEPTCEPSPKRPRGRPKGSKNKSPSKAAQKKAETIGEKRPRGRPRKWPQQVVQKKPAQETEETSSQESAEED
notes: Hmga2 as used in the biolayer interferometry assay; The main text has no methods for the BLI experiment
For B1, the binding entry is “binds”.
